Measurements published in paper PMC3411107.
Changes are numbered by the printed parent chain. These are yes or no findings as the source states them, for the method shown. For part of these data: Binding calls can cover weak binding; strength is not graded here. Sequences can lack the tags named with a protein. For part of these data: In cells and extracts the contact can be indirect.

Experiments:
REEP4-S152A-GFP (human) [1] = target: T1, REEP4-S152A-GFP (human) (UniProt Q9H6H4); experiment: condition: only phorbol ester-stimulated cells incubated with Gö6983 (1 µM for 30 min); far-Western, overlay or dot blot; 14-3-3 Far-Western assay on REEP4-GFP proteins isolated (anti-GFP IP) from HEK293 cells incubated with Gö6983 (1 µM for 30 min) before PMA (100 ng/ml for 30 min); both purified
T1 sequence: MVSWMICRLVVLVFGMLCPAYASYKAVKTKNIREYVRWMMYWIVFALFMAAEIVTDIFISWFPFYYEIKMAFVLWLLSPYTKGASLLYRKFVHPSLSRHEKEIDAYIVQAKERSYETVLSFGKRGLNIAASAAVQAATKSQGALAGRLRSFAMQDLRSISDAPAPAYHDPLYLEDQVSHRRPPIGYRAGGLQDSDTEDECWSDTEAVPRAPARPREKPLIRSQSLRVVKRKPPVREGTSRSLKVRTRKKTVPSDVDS

[2] = target: T2, GST-tagged REEP1 (Y65-end), treated with PKCζ in vitro (human) (UniProt Q9H902); experiment: far-Western, overlay or dot blot; GST-tagged REEP proteins (Y65-end) purified from E. coli, phosphorylated in vitro with PKCζ; 500 ng protein analysed by 14-3-3 Far-Western assay; both purified
T2 sequence (chain, incubated with PKCζ in vitro; sites not stated): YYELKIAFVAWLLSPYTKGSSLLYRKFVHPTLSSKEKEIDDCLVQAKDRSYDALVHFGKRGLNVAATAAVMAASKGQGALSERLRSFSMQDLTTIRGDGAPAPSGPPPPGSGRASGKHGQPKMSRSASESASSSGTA

[3] = target: T3, GST-tagged REEP3 (Y65-end), phosphorylated in vitro with PKCζ (human) (UniProt Q6NUK4); experiment: as above
T3 sequence (chain, phosphorylated in vitro with PKCζ; sites not stated): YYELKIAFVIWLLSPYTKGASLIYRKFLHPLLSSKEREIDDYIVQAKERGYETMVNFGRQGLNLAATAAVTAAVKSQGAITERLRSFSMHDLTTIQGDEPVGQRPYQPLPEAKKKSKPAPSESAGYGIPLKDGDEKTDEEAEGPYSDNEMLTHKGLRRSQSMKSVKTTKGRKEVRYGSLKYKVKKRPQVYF

[4] = target: T4, GST-tagged REEP4 (Y65-end), phosphorylated in vitro with PKCζ (human) (UniProt Q9H6H4); experiment: as above
T4 sequence (chain, phosphoserine at 224 (the PKCζ-phosphorylated site)): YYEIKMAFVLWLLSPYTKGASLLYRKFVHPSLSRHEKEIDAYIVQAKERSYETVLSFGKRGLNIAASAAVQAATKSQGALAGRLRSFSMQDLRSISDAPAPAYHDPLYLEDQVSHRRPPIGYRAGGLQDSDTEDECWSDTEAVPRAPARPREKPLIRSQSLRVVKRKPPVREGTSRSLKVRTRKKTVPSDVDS

[5] = target: T5, GST-tagged REEP2 (Y65-end), treated with PKCζ in vitro (human) (UniProt Q9BRK0); experiment: as above
T5 sequence (chain, incubated with PKCζ in vitro; sites not stated): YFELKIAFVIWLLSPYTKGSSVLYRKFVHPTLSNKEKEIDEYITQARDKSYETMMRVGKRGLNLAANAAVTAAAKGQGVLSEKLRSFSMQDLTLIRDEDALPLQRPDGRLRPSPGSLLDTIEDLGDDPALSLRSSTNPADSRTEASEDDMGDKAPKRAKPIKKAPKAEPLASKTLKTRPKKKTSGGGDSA

[6] = target: T6, GST-tagged REEP4 (Y65-end) with Ser224 mutated to alanine, treated with PKCζ in vitro (human) (UniProt Q9H6H4); experiment: as above
T6 sequence: T4 sequence (chain, phosphoserine at 224 (the PKCζ-phosphorylated site)) with S160A

REEP1-GFP (human) = target: T7, REEP1-GFP (human) (UniProt Q9H902); experiment: far-Western, overlay or dot blot; 14-3-3 Far-Western assay on REEP-GFP proteins isolated (anti-GFP IP) from lysates of transfected HEK293 cells; cells serum-starved 8 h, then with or without EGF, PMA, forskolin and the inhibitors BI-D1870, Gö6983, Gö6976, H-89; both purified
T7 sequence (chain, phosphoSer192): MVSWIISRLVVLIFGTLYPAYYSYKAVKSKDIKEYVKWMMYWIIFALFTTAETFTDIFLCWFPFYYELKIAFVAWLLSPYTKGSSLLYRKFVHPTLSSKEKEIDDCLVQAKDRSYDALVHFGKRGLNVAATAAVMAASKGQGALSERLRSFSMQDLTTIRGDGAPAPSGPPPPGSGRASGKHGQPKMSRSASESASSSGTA

[7] = target: T8, Ser224Ala-substituted REEP4 (REEP4-GFP) (human) (UniProt Q9H6H4); experiment: as above
T8 sequence: T1 sequence with A152S, S224A

REEP3-GFP (human) [8] = target: T9, REEP3-GFP (human) (UniProt Q6NUK4); experiment: as above
T9 sequence (chain, phosphoSer152; pSer225): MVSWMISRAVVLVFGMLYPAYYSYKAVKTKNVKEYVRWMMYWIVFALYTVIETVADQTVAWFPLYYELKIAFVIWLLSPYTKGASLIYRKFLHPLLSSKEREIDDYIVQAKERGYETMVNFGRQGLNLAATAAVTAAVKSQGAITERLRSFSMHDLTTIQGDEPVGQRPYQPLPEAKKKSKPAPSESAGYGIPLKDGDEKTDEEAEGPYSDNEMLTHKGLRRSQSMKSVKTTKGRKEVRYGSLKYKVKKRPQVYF

REEP4-S152A-GFP (human) [9] = target: T1, REEP4-S152A-GFP (human); experiment: as above
[10] = target: T10, REEP4-GFP (wild-type) (human) (UniProt Q9H6H4); experiment: as above
T10 sequence (chain, phosphoserine at 152; phosphoserine at 224 in phorbol ester-stimulated cells): T1 sequence with A152S

REEP4-S152A-GFP (human) [11] = target: T1, REEP4-S152A-GFP (human); experiment: condition: only cells not stimulated with phorbol ester; far-Western, overlay or dot blot; 14-3-3 Far-Western assay on REEP4-GFP proteins isolated (anti-GFP IP) from HEK293 cells that were not stimulated with phorbol ester; both purified
REEP3-GFP (human) [12] = target: T9, REEP3-GFP (human); experiment: co-IP; REEP-GFP proteins isolated from lysates (2.5 mg) of transfected HEK293 cells with GFP-Trap agarose (anti-GFP IP); co-purified endogenous RAB3GAP1, RAB3GAP2 and 14-3-3 detected by immunoblotting
REEP2-GFP (human) = target: T11, REEP2-GFP (human) (UniProt Q9BRK0); experiment: as above
T11 sequence (chain, phosphorylated on a serine residue analogous to REEP4-Ser152): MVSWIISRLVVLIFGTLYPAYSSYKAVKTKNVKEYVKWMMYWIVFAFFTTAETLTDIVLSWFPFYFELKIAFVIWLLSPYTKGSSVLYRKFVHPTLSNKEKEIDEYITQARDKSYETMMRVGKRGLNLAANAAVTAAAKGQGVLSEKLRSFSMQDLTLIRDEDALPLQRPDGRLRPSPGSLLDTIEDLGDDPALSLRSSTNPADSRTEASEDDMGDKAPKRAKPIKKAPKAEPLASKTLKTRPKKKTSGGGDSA

[13] = target: T10, REEP4-GFP (wild-type) (human); experiment: as above

| Substance | binding (REEP4-S152A-GFP (human) [1]) | binding [2] | binding [3] | binding [4] | binding [5] | binding [6] | binding (REEP1-GFP (human)) | binding [7] | binding (REEP3-GFP (human) [8]) | binding (REEP4-S152A-GFP (human) [9]) | binding [10] | binding (REEP4-S152A-GFP (human) [11]) | binding (REEP3-GFP (human) [12]) | binding (REEP2-GFP (human)) | binding [13] |
| --- | --- | --- | --- | --- | --- | --- | --- | --- | --- | --- | --- | --- | --- | --- | --- |
| 14-3-3 (probe of the 14-3-3 Far-Western assay) | no binding | no binding | binds | binds | no binding | no binding | binds weakly | binds weakly | binds | binds | binds | no binding | – | – | – |
| endogenous 14-3-3 (human (endogenous in HEK293)) | – | – | – | – | – | – | – | – | – | – | – | – | binds | no binding | binds |
